The record followed here is PMC7548010.

Chains of the proteins cited; added tags and fusions are not shown.
UniProt Q93009: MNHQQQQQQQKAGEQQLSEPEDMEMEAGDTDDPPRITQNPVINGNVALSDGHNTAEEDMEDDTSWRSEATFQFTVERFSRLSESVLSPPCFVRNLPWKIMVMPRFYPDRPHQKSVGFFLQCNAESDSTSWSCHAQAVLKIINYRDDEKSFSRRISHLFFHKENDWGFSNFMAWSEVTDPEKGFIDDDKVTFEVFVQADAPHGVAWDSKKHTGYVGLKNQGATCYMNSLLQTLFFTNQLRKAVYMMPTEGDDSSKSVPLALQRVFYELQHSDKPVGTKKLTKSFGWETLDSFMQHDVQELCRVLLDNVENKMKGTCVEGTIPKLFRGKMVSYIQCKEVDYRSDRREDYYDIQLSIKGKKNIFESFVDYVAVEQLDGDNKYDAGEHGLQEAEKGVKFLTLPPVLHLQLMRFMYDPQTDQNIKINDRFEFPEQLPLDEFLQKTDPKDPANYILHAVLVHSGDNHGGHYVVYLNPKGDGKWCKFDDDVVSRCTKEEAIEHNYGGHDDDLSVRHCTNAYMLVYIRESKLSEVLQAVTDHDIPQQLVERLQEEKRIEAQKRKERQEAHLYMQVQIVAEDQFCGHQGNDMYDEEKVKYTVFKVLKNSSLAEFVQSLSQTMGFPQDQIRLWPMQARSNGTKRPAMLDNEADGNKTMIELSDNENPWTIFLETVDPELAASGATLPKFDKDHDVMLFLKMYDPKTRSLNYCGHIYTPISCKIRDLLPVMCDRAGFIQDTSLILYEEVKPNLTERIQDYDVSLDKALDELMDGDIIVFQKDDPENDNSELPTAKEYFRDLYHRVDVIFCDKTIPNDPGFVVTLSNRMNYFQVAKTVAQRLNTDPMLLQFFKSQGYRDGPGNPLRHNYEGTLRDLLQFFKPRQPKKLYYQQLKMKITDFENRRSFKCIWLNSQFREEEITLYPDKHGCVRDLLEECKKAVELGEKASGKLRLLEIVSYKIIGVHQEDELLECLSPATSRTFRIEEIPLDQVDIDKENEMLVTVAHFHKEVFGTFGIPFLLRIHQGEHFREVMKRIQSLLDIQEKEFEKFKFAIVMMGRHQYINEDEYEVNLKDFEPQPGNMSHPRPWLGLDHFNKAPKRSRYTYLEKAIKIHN
UniProt Q14966: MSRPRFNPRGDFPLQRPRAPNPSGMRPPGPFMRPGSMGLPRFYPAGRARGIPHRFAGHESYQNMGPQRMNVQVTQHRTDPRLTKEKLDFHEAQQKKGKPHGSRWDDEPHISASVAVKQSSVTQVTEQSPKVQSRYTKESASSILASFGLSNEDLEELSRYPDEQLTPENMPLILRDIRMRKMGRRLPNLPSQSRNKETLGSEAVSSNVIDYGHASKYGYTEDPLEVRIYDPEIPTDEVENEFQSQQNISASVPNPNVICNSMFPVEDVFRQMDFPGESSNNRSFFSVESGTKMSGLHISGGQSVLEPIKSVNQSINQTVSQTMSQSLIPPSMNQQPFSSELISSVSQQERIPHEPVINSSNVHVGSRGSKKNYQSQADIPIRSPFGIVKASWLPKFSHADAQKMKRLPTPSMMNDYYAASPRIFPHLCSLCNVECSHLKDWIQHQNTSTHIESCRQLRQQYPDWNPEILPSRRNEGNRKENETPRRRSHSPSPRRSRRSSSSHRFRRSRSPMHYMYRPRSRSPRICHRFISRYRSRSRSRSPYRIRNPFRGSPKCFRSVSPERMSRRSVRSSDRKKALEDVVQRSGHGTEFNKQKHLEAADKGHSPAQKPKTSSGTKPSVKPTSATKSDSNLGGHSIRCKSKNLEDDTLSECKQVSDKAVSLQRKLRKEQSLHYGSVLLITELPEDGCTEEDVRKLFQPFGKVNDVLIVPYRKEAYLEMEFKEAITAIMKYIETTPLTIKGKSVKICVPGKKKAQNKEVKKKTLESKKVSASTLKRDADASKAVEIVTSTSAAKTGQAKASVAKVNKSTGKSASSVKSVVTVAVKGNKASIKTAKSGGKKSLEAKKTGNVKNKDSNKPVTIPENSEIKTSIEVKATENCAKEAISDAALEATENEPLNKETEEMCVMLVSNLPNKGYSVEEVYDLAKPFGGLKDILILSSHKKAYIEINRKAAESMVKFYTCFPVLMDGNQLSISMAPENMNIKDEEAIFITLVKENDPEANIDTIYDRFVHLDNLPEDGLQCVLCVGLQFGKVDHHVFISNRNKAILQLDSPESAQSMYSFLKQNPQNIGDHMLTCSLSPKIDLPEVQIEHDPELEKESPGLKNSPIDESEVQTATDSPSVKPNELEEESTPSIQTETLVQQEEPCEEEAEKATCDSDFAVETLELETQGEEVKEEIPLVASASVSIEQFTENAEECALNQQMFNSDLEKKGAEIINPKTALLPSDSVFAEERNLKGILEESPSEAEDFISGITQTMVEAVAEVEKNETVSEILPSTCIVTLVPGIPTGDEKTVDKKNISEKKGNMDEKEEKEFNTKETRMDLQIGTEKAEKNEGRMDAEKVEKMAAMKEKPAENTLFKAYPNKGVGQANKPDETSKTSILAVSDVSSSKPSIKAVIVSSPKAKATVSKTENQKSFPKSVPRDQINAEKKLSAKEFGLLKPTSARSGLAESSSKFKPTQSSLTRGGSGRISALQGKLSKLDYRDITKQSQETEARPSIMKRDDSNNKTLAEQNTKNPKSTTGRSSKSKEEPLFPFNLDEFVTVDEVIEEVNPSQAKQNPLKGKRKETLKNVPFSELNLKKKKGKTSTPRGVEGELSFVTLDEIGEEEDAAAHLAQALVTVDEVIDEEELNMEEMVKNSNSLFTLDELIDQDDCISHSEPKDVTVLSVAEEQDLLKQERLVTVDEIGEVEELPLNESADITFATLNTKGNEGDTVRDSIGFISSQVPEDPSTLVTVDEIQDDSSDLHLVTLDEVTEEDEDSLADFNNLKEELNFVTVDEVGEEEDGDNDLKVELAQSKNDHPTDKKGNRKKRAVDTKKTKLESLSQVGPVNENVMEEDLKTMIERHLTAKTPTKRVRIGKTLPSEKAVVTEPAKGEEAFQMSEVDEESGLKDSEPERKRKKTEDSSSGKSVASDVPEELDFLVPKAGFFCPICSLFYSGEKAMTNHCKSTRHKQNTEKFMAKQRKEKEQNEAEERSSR

No constants are given. Whether binding was seen depends on the method and setting. In cells and extracts the contact can be indirect. Some binding calls cover weakened binding; strength is not graded here.

Assay [1] has as its target Ubiquitin-specific peptidase 7 (USP7) (human (endogenous in SK-Hep1 and Huh-7)) (UniProt Q93009). Briefly: co-IP; endogenous proteins, SK-Hep1 cells lysed in RIPA lysis buffer with protease inhibitors; immunoprecipitation with primary antibody and protein A/G agarose, immunoblotting.
In assay [2] the target is Zinc finger protein 638 (ZNF638) (human (endogenous in SK-Hep1 and Huh-7)) (UniProt Q14966). Described as above.

B1: full-length SREBP1C (sterol regulatory element binding protein) (protein, UniProt P36956-3 1-1047)
chain: MDCTFEDMLQLINNQDSDFPGLFDPPYAGSGAGGTDPASPDTSSPGSLSPPPATLSSSLEAFLSGPQAAPSPLSPPQPAPTPLKMYPSMPAFSPGPGIKEESVPLSILQTPTPQPLPGALLPQSFPAPAPPQFSSTPVLGYPSPPGGFSTGSPPGNTQQPLPGLPLASPPGVPPVSLHTQVQSVVPQQLLTVTAAPTAAPVTTTVTSQIQQVPVLLQPHFIKADSLLLTAMKTDGATVKAAGLSPLVSGTTVQTGPLPTLVSGGTILATVPLVVDAEKLPINRLAAGSKAPASAQSRGEKRTAHNAIEKRYRSSINDKIIELKDLVVGTEAKLNKSAVLRKAIDYIRFLQHSNQKLKQENLSLRTAVHKSKSLKDLVSACGSGGNTDVLMEGVKTEVEDTLTPPPSDAGSPFQSSPLSLGSRGSGSGGSGSDSEPDSPVFEDSKAKPEQRPSLHSRGMLDRSRLALCTLVFLCLSCNPLASLLGARGLPSPSDTTSVYHSPGRNVLGTESRDGPGWAQWLLPPVVWLLNGLLVLVSLVLLFVYGEPVTRPHSGPAVYFWRHRKQADLDLARGDFAQAAQQLWLALRALGRPLPTSHLDLACSLLWNLIRHLLQRLWVGRWLAGRAGGLQQDCALRVDASASARDAALVYHKLHQLHTMGKHTGGHLTATNLALSALNLAECAGDAVSVATLAEIYVAAALRVKTSLPRALHFLTRFFLSSARQACLAQSGSVPPAMQWLCHPVGHRFFVDGDWSVLSTPWESLYSLAGNPVDPLAQVTQLFREHLLERALNCVTQPNPSPGSADGDKEFSDALGYLQLLNSCSDAAGAPAYSFSISSSMATTTGVDPVAKWWASLTAVVIHWLRRDEEAAERLCPLVEHLPRVLQESERPLPRAALHSFKAARALLGCAKAESGPASLTICEKASGYLQDSLATTPASSSIDKAVQLFLCDLLLVVRTSLWRQQQPPAPAPAAQGTSSRPQASALELRGFQRDLSSLRRLAQSFRPAMRRLMDVLTSESAWALPQHLGKGFPSPSGHKVPGWHGRMD
For the molecule B1, the binding entry in assay [1] and in assay [2] was “binds” throughout.
